PubChem BioAssay AID493246, Drosophila RNAi Screening Center | 2011
The screen tested about 21,000 reagents; shown is an unselected part of those that have a named target and a result. Of all reagents, 429 (2%) got an active call. 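Values are raw and not normalised between plates; calls rest on per-plate z-scores that were not deposited.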 The record does not give: the amount of reagent, the time to read-out.

- Aim: 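Genes fly cells need to grow and stay alive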 (primary screen)
- Cell system: Drosophila Kc and S2R+ cells
- Reagents: long dsRNA against Drosophila genes
- Read-out: 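Raw, unnormalised count of remaining cells in each well; per-plate z-scores of cell number underlie the calls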
- Reading the numbers: Kc cell number and S2R+ cell number: higher = more cells remaining
- Active means: 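Counted as a hit if cell number falls by a z-score of at least 3 within its plate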

With CG34161 [SID104180924], how do the results read?
Kc cell number, rep 1: 1.44e6; Kc cell number, rep 2: 1.47e6; S2R+ cell number, rep 1: 1.02e6; S2R+ cell number, rep 2: 1.15e6; call: inactive

For dlp (dally-like) [SID104190073], what was measured?
Kc cell number, rep 1: 1.05e6; Kc cell number, rep 2: 1.21e6; S2R+ cell number, rep 1: 8.05e5; S2R+ cell number, rep 2: 8.75e5; call: inactive

How did the screen score dlp (dally-like) [SID104190264]?
Kc cell number, rep 1: 1.32e6; Kc cell number, rep 2: 1.38e6; S2R+ cell number, rep 1: 1.13e6; S2R+ cell number, rep 2: 1.17e6; call: inactive

Which result is listed for CG13066 [SID104189741]?
Kc cell number, rep 1: 1.37e6; Kc cell number, rep 2: 1.56e6; S2R+ cell number, rep 1: 1.29e6; S2R+ cell number, rep 2: 1.42e6; call: inactive

For CG31848 [SID104181101], what was measured?
Kc cell number, rep 1: 1.42e6; Kc cell number, rep 2: 1.47e6; S2R+ cell number, rep 1: 1.01e6; S2R+ cell number, rep 2: 1.15e6; call: inactive

Which result is listed for CG13010 [SID104199321]?
Kc cell number, rep 1: 1.33e6; Kc cell number, rep 2: 1.39e6; S2R+ cell number, rep 1: 9.87e5; S2R+ cell number, rep 2: 1.05e6; call: inactive

For Hr3 (Hormone receptor 3) [SID104185910], how do the results read?
Kc cell number, rep 1: 1.28e6; Kc cell number, rep 2: 1.39e6; S2R+ cell number, rep 1: 7.17e5; S2R+ cell number, rep 2: 7.32e5; call: active

Which result is listed for Hr3 (Hormone receptor 3) [SID104187233]?
Kc cell number, rep 1: 1.49e6; Kc cell number, rep 2: 1.48e6; S2R+ cell number, rep 1: 1.16e6; S2R+ cell number, rep 2: 1.20e6; call: inactive

What is on record for CG5704 [SID104188364]?
Kc cell number, rep 1: 1.37e6; Kc cell number, rep 2: 1.47e6; S2R+ cell number, rep 1: 1.25e6; S2R+ cell number, rep 2: 1.25e6; call: inactive

With CG14662 [SID104192040], what was measured?
Kc cell number, rep 1: 1.77e6; Kc cell number, rep 2: 1.71e6; S2R+ cell number, rep 1: 1.40e6; S2R+ cell number, rep 2: 1.39e6; call: inactive

What did the screen give for Fpgs2 (Folylpolyglutamate synthase 2) [SID104180392]?
Kc cell number, rep 1: 1.85e6; Kc cell number, rep 2: 1.67e6; S2R+ cell number, rep 1: 1.25e6; S2R+ cell number, rep 2: 1.40e6; call: inactive

With CG31517 [SID104192802], what was measured?
Kc cell number, rep 1: 1.67e6; Kc cell number, rep 2: 2.14e6; S2R+ cell number, rep 1: 1.13e6; S2R+ cell number, rep 2: 1.31e6; call: inactive

For Smox (Smad on X) [SID104198508], what was measured?
Kc cell number, rep 1: 1.52e6; Kc cell number, rep 2: 1.49e6; S2R+ cell number, rep 1: 1.02e6; S2R+ cell number, rep 2: 1.09e6; call: inactive

With Edg91 (Ecdysone-dependent gene 91) [SID104196449], how do the results read?
Kc cell number, rep 1: 1.50e6; Kc cell number, rep 2: 1.47e6; S2R+ cell number, rep 1: 1.04e6; S2R+ cell number, rep 2: 1.09e6; call: inactive

Laid out differently: results already given
{"gene":"CG14662","PubChem SID":"SID104192040","Kc cell number, rep 1":1.77e6,"Kc cell number, rep 2":1.71e6,"S2R+ cell number, rep 1":1.40e6,"S2R+ cell number, rep 2":1.39e6,"call":"inactive"}
{"gene":"Fpgs2 (Folylpolyglutamate synthase 2)","PubChem SID":"SID104180392","Kc cell number, rep 1":1.85e6,"Kc cell number, rep 2":1.67e6,"S2R+ cell number, rep 1":1.25e6,"S2R+ cell number, rep 2":1.40e6,"call":"inactive"}
{"gene":"CG31517","PubChem SID":"SID104192802","Kc cell number, rep 1":1.67e6,"Kc cell number, rep 2":2.14e6,"S2R+ cell number, rep 1":1.13e6,"S2R+ cell number, rep 2":1.31e6,"call":"inactive"}
{"gene":"Smox (Smad on X)","PubChem SID":"SID104198508","Kc cell number, rep 1":1.52e6,"Kc cell number, rep 2":1.49e6,"S2R+ cell number, rep 1":1.02e6,"S2R+ cell number, rep 2":1.09e6,"call":"inactive"}

Further records follow.
How did the screen score Or9a (Odorant receptor 9a) [SID104198484]?
Kc cell number, rep 1: 1.53e6; Kc cell number, rep 2: 1.51e6; S2R+ cell number, rep 1: 9.85e5; S2R+ cell number, rep 2: 1.11e6; call: inactive

How did the screen score Cp15 (Chorion protein 15) [SID104190910]?
Kc cell number, rep 1: 1.48e6; Kc cell number, rep 2: 1.49e6; S2R+ cell number, rep 1: 1.09e6; S2R+ cell number, rep 2: 1.20e6; call: inactive

How did the screen score Marcal1 [SID104182510]?
Kc cell number, rep 1: 1.51e6; Kc cell number, rep 2: 1.46e6; S2R+ cell number, rep 1: 1.08e6; S2R+ cell number, rep 2: 1.22e6; call: inactive

What did the screen give for CG16852 [SID104181668]?
Kc cell number, rep 1: 1.49e6; Kc cell number, rep 2: 1.54e6; S2R+ cell number, rep 1: 1.24e6; S2R+ cell number, rep 2: 1.36e6; call: inactive

Which result is listed for cas (castor) [SID104192165]?
Kc cell number, rep 1: 1.19e6; Kc cell number, rep 2: 1.39e6; S2R+ cell number, rep 1: 1.23e6; S2R+ cell number, rep 2: 1.28e6; call: inactive

With Traf-like (TNF-receptor-associated factor-like) [SID104199686], what was measured?
Kc cell number, rep 1: 6.72e5; S2R+ cell number, rep 1: 8.73e5; call: inactive

What is on record for CG34227 [SID104186580]?
Kc cell number, rep 1: 1.56e6; Kc cell number, rep 2: 1.59e6; S2R+ cell number, rep 1: 1.17e6; S2R+ cell number, rep 2: 1.31e6; call: inactive

What did the screen give for CG34227 [SID104186826]?
Kc cell number, rep 1: 1.51e6; Kc cell number, rep 2: 1.57e6; S2R+ cell number, rep 1: 1.17e6; S2R+ cell number, rep 2: 1.34e6; call: inactive
